The supplement of paper PMC6414424
Counter-ions that a name gives are not always drawn. ± gives the standard deviation of the averaged measurements. This is one part of the list.

The compounds below were run on APPdp1-6 iPSC-derived neurons (assay: pThr231Tau/total Tau ratio Z-score vs DMSO vehicle wells; higher = more pThr231Tau relative to total Tau). Details: 5 µM; treatment time 5 days.

Structure (SMILES) | pThr231Tau/total Tau ratio Z-score
O=c1n(CCCN2CCN(c3cccc(Cl)c3)CC2)nc2ccccn12 [Prestw-292] | 0.332 ± 1.2
CC(=O)NCCCCCC(=O)O [ACEXAMIC ACID    Therap cat: wound healing] | 2.24 ± 1.6
COc1ccc2cc([C@H](C)C(=O)O)ccc2c1 [Prestw-45] | -0.369 ± 0.35
C/C=C(/C(=C/C)c1ccc(O)cc1)c1ccc(O)cc1 [Prestw-798] | 1.15 ± 0.5
Cc1ncc([N+](=O)[O-])n1CC(C)O (stereo unspecified) [Prestw-1340] | -0.65 ± 0.29
O=C(O)c1ccccc1OP(=O)(O)O [Prestw-815] | -0.2 ± 0.41
CC1=C(/C=C/C(C)=C/C=C/C(C)=C/CO)C(C)(C)CCC1 [Vitamin A] | 0.969 ± 2.1
C=C1c2cccc(O)c2C(O)=C2C(=O)[C@]3(O)C(O)=C(C(N)=O)C(=O)[C@@H](N(C)C)[C@@H]3[C@@H](O)[C@H]12 [Prestw-964] | 0.672 ± 0.39
C/C(=C\C(=O)OCCCCCCCCC(=O)O)C[C@@H]1OC[C@H](C[C@@H]2O[C@H]2[C@@H](C)[C@H](C)O)[C@@H](O)[C@H]1O | 1.15 ± 1.9
CCc1cccc(CC)c1NC(=O)CN(CC(=O)O)CC(=O)O [Prestw-504] | -0.0716 ± 0.23
O=c1oc2cc(O)ccc2s1 [THIOXOLONE    Therap cat: antiseborrhoic] | 1.74 ± 0.83
Nc1ncnc2c1ncn2C1OC(COP(=O)(O)O)C(O)C1O (stereo unspecified) [Prestw-356] | 1.21 ± 1.5
CCOc1ccc2nc(S(N)(=O)=O)sc2c1 | 2.27 ± 2.3
C[C@@H]1C[C@H]2[C@@H]3CCC4=CC(=O)C=C[C@]4(C)[C@@]3(Cl)[C@@H](O)C[C@]2(C)[C@@]1(OC(=O)c1ccco1)C(=O)CCl [Prestw-572] | -1.08 ± 0.068
CN1CCCN(C(c2ccccc2)c2ccc(Cl)cc2)CC1 (stereo unspecified) [Prestw-283] | -1.05 ± 0.79
CC(C)OC(=O)C(C)(C)Oc1ccc(C(=O)c2ccc(Cl)cc2)cc1 [Prestw-275] | 0.232 ± 1.1
Cc1c(O)c(=O)n(-c2ccccc2)n1C [Prestw-30] | 0.659 ± 0.79
NC(=O)CC[C@H](N)C(=O)O [L-Glutamine] | 1.97 ± 2.1
O=C1c2ccccc2C(=O)C1c1ccc(Br)cc1 [BROMINDIONE, anticoagulant] | 1.26 ± 0.67
CC=CC1=C(C(=O)O)N2C(=O)[C@@H](NC(=O)[C@H](N)c3ccc(O)cc3)[C@H]2SC1 [CEFPROZIL, antibacterial] | 1 ± 1.9
Cc1cc2c(s1)Nc1ccccc1N=C2N1CCN(C)CC1 [Prestw-1455] | -1.41 ± 0.42
CC(=O)N(c1onc(C)c1C)S(=O)(=O)c1ccc(N)cc1 [SULFISOXAZOLE ACETYL, antibacterial] | -0.575 ± 0.25
Cc1cc(O)cc(C)c1Cl | 0.644 ± 1.8
Oc1cccc(O)c1 [RESORCINOL    Therap cat:  keratolytic; antiseborheic] | 1.64 ± 2.5
CN1CCCN=C1/C=C/c1cccc(O)c1 [Prestw-398] | -0.335 ± 0.47
CN1CCCN=C1/C=C/c1cccc(O)c1 [OXANTEL PAMOATE, anthelmintic] | 0.724 ± 1.2

Structure (SMILES) | pThr231Tau/total Tau ratio Z-score
CC(N)CCCC(C)(C)O (stereo unspecified) [Prestw-15] | -0.359 ± 0.46
C=CC[C@@H]1C=C(C)C[C@H](C)C[C@H](OC)[C@H]2O[C@@](O)(C(=O)C(=O)N3CCCC[C@H]3C(=O)O[C@H](C(C)=C[C@@H]3CC[C@@H](O)[C@H](OC)C3)[C@H](C)[C@@H](O)CC1=O)[C@H](C)C[C@@H]2OC | 0.0896 ± 1.5
N[C@@H](Cc1cc(I)c(Oc2ccc(O)c(I)c2)c(I)c1)C(=O)O [Prestw-853] | -0.827 ± 0.35
Nc1c2ccccc2nc2ccccc12 [AMINACRINE    Therap cat: local antiseptic] | -1.45 ± 1.9
CN1CCC(=C2c3ccccc3Sc3ccccc32)CC1 [Prestw-294] | -1.69 ± 0.58
C#C[C@]1(O)CC[C@H]2[C@@H]3CCC4=CCCC[C@@H]4[C@H]3CC[C@@]21C [Prestw-95] | 0.471 ± 0.2
C[C@H](CCC(=O)O)[C@H]1CC[C@H]2[C@@H]3[C@@H](O)C[C@@H]4C[C@H](O)CC[C@]4(C)[C@H]3CC[C@]12C [Prestw-958] | 1 ± 0.56
O=C(CCCN1CCN(c2ccccn2)CC1)c1ccc(F)cc1 [Prestw-1117] | 0.142 ± 0.24
CC1CC(OC(=O)c2ccccc2O)CC(C)(C)C1 (stereo unspecified) [Prestw-1090] | 0.992 ± 0.45
COC(=O)C1=C(C#N)NC(C)=C(C(=O)OC(C)C)C1c1cccc([N+](=O)[O-])c1 (stereo unspecified) [Prestw-1154] | -0.552 ± 0.63
OCCN(CCO)c1nc(N2CCCCC2)c2nc(N(CCO)CCO)nc(N3CCCCC3)c2n1 [Prestw-142] | 1.88 ± 0.74
CN(c1nccc(=O)[nH]1)C1CCN(c2nc3ccccc3n2Cc2ccc(F)cc2)CC1 [Prestw-1506] | 0.291 ± 0.29
O=C(O)c1ccccc1C(=O)Nc1ccc(S(=O)(=O)Nc2nccs2)cc1 [Prestw-869] | -0.187 ± 0.15
C[N+](C)(C)CC(=O)O [Betaine] | 1.35 ± 1.2
C[C@]12CC[C@@H]3c4ccc(OC(=O)c5ccccc5)cc4CC[C@H]3[C@@H]1CC[C@@H]2O [ESTRADIOL BENZOATE    Therap cat: estrogen] | 0.176 ± 0.18
CN1CCN(C(c2ccccc2)c2ccccc2)CC1 [Prestw-510] | -0.386 ± 0.7
CCN(CC)CCNC(C(=O)OCCC(C)C)c1ccccc1 (stereo unspecified) [Prestw-1498] | 0.348 ± 0.0042
C[C@@H]1C[C@H]2[C@@H]3CCC4=CC(=O)C=C[C@]4(C)[C@@]3(F)[C@@H](O)C[C@]2(C)[C@@]1(O)C(=O)COP(=O)(O)O | 1.64 ± 1.9
Cn1cnc([N+](=O)[O-])c1Sc1ncnc2nc[nH]c12 [Prestw-94] | 1.85 ± 1.2
CC(C)(CO)C(O)C(=O)NCCC(=O)O (stereo unspecified) [PANTOTHENIC ACID(d) Na salt, vitamin B5] | 0.0697 ± 0.9
COc1cccc2c1C(=O)c1c(O)c3c(c(O)c1C2=O)C[C@@](O)(C(C)=O)C[C@@H]3O[C@H]1C[C@H](N)[C@H](O)[C@H](C)O1 [Prestw-487] | -3.25 ± 1.9
C=CC1=C(C(=O)O)N2C(=O)[C@@H](NC(=O)/C(=N\O)c3csc(N)n3)[C@H]2SC1 [Prestw-1263] | -0.662 ± 1.2
OCc1ccccc1O[C@@H]1O[C@H](CO)[C@@H](O)[C@H](O)[C@H]1O [Salicin] | 0.99 ± 2
CC(=O)NS(=O)(=O)c1ccc(N)cc1 [Prestw-14] | 0.312 ± 0.062
CC(=O)NS(=O)(=O)c1ccc(N)cc1 [SULFACETAMIDE    Therap cat:  Antibacterial] | 2.07 ± 2.3

Already shown: entries from further up.
Structure (SMILES) | pThr231Tau/total Tau ratio Z-score
Cn1cnc([N+](=O)[O-])c1Sc1ncnc2nc[nH]c12 [Prestw-94] | 1.85 ± 1.2
CC(C)(CO)C(O)C(=O)NCCC(=O)O (stereo unspecified) [PANTOTHENIC ACID(d) Na salt, vitamin B5] | 0.0697 ± 0.9
COc1cccc2c1C(=O)c1c(O)c3c(c(O)c1C2=O)C[C@@](O)(C(C)=O)C[C@@H]3O[C@H]1C[C@H](N)[C@H](O)[C@H](C)O1 [Prestw-487] | -3.25 ± 1.9
